According to patent US8992897B2, “Skin lightening compositions” (ELC Management LLC, priority 2010, dated 2015):
At least one structure is not confirmed: it was looked up by name or label, or the drawing left a doubt.

System: B16F10 melanoma cells
Experiment: pH change in B16F10 melanoma cells by DAMP accumulation / FITC anti-DNP fluorescence
Assay type: cell-based, mouse
Details: exposure of cells for 24 hours
Procedure: The protocol to detect changes in pH followed that of Cheli, Y. et al. B16F10 melanoma cells were seeded in glass bottom dishes and maintained in DMEM medium with 10% FBS. […] Cells were washed with fresh culture medium and incubated for 20 minutes in the presence of 30 μM DAMP ([3-(2,4-dinitroanilino)3′amino-N-methyldipropylamine], a weak base which accumulates in acidic compartments). Cells were fixed in 3% PFA for 20 minutes at room temperature. The glass bottom dishes were washed with PBS, incubated 10 minutes in NH4Cl//PBS at room temperature and permeabilized in PBS with 0.1% Triton-100 for two minutes on ice. The dishes were then incubated with a green reflecting fluoroscein isothiocyanate (FITC)-labeled rabbit anti-dinitrophenyl (DNP) antibody (1/50 PBS plus 1% BSA) for one hours at 37° C. The intensity of fluorescence indicated the accumulation of DAMP. Increased intensity of the fluorescence can be related to lowered pH. (Cheli, Y., Luciani, F., Khaled, M., Beuret, L., Billie, K., Gounon, Pl, Ortonne, J. P., Bertolotto, C., and Ballotti, R. Alpha-MSH and cyclic-AMP elevating agents control melanosome pH through a PKA-independent mechanism. J. Biol. Chem., 284:18699-18706, 2009).
It has been previously shown that forskolin induces an alkalinization of the melanosome milieu.

**Q.** `C=C[C@@]1(C)CC(=O)[C@]2(O)[C@@]3(C)[C@@H](O)CCC(C)(C)[C@@H]3[C@H](O)[C@H](OC(C)=O)[C@@]2(C)O1` [Forskolin] was tested. Which “Fluorescence intensity / DAMP labeling (in words)” value did it give?
**A.** decreased DAMP labeling
